PubChem BioAssay AID1259308 – NCATS | 2017
Assay: 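Candidate targets for better recombinant protein yield in mammalian cells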 (primary screen). System: human HEK293 embryonic kidney cells stably expressing firefly luciferase (HEK-CMV-Luc2-Hygro). Reagent: single siRNA against human genes, 0.8 pmol siRNA per well. Timing: 72 h. Read-out: 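Reporter luminescence and viable-cell signal on separate replicate plates, given as percent of non-targeting control and median/MAD z-scores, plus per-cell luciferase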. Direction: total luciferase, z-score and total luciferase, % of control: higher = more reporter protein produced. Rule for the call: 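An siRNA counts as active if its total luciferase robust z-score exceeds 3; genes with two or more such siRNAs out of three were retested with fresh siRNAs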. Meaning of the calls: active = raised luciferase; inactive = no rise.
Here is a random part of about 59,000 reagents tested. In the full data, about 1,510 (2.6%) are marked active. 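Calls use total luciferase alone and ignore viability, so some active siRNAs may act by altering cell number.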 Unmarked entries are inactive. The numbers tell different reagents against one gene apart. Not all columns of the deposit are shown.

SPSB2 #1 gave total luciferase, z-score -0.659; total luciferase, % of control 68.8.
After knock-down of SPSB2 #2, the screen gave total luciferase, z-score 0.712; total luciferase, % of control 96.
Depletion of SPSB2 #3 resulted in: total luciferase, z-score -0.421; total luciferase, % of control 73.5.
Silencing of SMARCA5 #1 came out at: total luciferase, z-score 0.604; total luciferase, % of control 93.9.
Knock-down of SMARCA5 #2 gave: total luciferase, z-score 0.574; total luciferase, % of control 93.3.
SMARCA5 #3 showed total luciferase, z-score -0.0425; total luciferase, % of control 81.
CDR2 #1 showed total luciferase, z-score 2.36; total luciferase, % of control 129.
Silencing of CDR2 #2 gave: total luciferase, z-score -1.26; total luciferase, % of control 56.9.
CDR2 #3 gave total luciferase, z-score 0.168; total luciferase, % of control 85.2.
Silencing of NPY5R #1 resulted in: total luciferase, z-score 0.803; total luciferase, % of control 97.9.
Silencing of NPY5R #2 resulted in: total luciferase, z-score -0.636; total luciferase, % of control 69.2.
With knock-down of NPY5R #3, the record shows total luciferase, z-score -0.209; total luciferase, % of control 77.7.

Limited to “total luciferase, % of control”, for 2 of the entries above:
SMARCA5 #3: 81
CDR2 #1: 129
